Each structure is given as a SMILES string. Where a name gives a salt, the structure may show the parent alone. The list shows a part of the results. Many values rest on one well or one pass, so single values are uncertain.

One experiment relates to M238R (matched melanoma line resistant to BRAF inhibitors). Description: reduction in cell viability relative to untreated/vehicle; higher = more growth inhibition. To be noted: 200 nM; 72 h.
In the case of `COc1ccc(C(=O)CC(=O)c2ccc(C(C)(C)C)cc2)cc1` [Avobenzone], the “reduction in cell viability” value is under 0%.
On to `C=CC(=O)N1CCc2ccc(-n3c(=O)ccc4cnc5ccc(-c6cnn(C)c6)cc5c43)cc21`, for which the “reduction in cell viability” value was under 0%.
On the same count and under the same terms, the figure for `O=c1ccc2ccc(O)c(O)c2o1` [Daphnetin] is under 0%.
With `CO[C@H]1/C=C\C=C(/C)C(=O)NC2=CC(=O)C(NCCN(C)C)=C(C[C@@H](C)C[C@H](OC)[C@H](O)[C@@H](C)/C=C(\C)[C@@H]1OC(N)=O)C2=O` [Alvespimycin hydrochloride], the “reduction in cell viability” value turned out to be 65.4%.
Still for that read-out and setting: in the case of `O=C(O)c1cc(O)c2c(c1)C(=O)c1cccc(O)c1C2=O` [Rhein] it was under 0%; in that of `Cc1[nH]nc2ccc(-c3cncc(OC[C@@H](N)Cc4ccccc4)c3)cc12`, under 0%.
Take `CN1CCCN(C(=O)c2cccc(-c3ccc(/C=C4/C(=O)Nc5ccc(Cl)cc54)o3)c2)CC1`: the “reduction in cell viability” value worked out at 4.36%.
As for `CCCCS(=N)(=O)CCC(N)C(=O)O` (stereo unspecified) [Buthionine sulfoximine], the “reduction in cell viability” value is under 0%.
As for `Cc1[nH]c(/C=C2\C(=O)Nc3ccccc32)c(C)c1CCC(=O)O` [Orantinib], the “reduction in cell viability” value was under 0%.
With `C1CCC(C(CC2CCCCN2)C2CCCCC2)CC1` (stereo unspecified) [Perhexiline], the “reduction in cell viability” value was under 0%.
Same read-out and setting: the figure for `Cc1ccc(S(=O)(=O)N[C@@H](Cc2ccccc2)C(=O)CCl)cc1` is under 0%; for `NC(=O)Cc1cccc(C(=O)c2ccccc2)c1N` [Nepafenac] it is under 0%.
Still for that read-out and setting: the figure for `Nc1ncnc2c1c(-c1cccc(OCc3ccccc3)c1)cn2C1CC(CN2CCCC2)C1` (stereo unspecified) is under 0%; for `N#CN=C(NCCCCCCOc1ccc(Cl)cc1)Nc1ccncc1` it is 45.9%; for `O=c1[nH]c(=O)n(C2CCCO2)cc1F` (stereo unspecified) [Tegafur] it is under 0%.
As to `COc1cc2ncnc(Nc3cccc(Br)c3)c2cc1OC`, the “reduction in cell viability” value is under 0%.
Same read-out and setting: in the case of `O=C(O)Cc1ccccc1Nc1c(Cl)cccc1Cl` [Diclofenac sodium] it was under 0%; in that of `CS(=O)(=O)c1cc(F)cc2c3c(n(Cc4ccc(Cl)cc4)c12)[C@@H](CC(=O)O)CC3` [Laropiprant], under 0%; in that of `Cc1cnc(Nc2ccc(F)cc2Cl)nc1-c1c[nH]c(C(=O)N[C@H](CO)c2cccc(Cl)c2)c1`, under 0%.
With `O=C(O)c1ccc(-n2nc(-c3ccccc3O)nc2-c2ccccc2O)cc1` [Deferasirox], the “reduction in cell viability” value is under 0%.
In the case of `COCC(=O)NC/C=C/c1ccc2ncnc(Nc3ccc(Oc4ccc(C)nc4)c(C)c3)c2c1`, the “reduction in cell viability” value was under 0%.
On the same count and under the same terms, in the case of `COc1cccc2c1C(=O)c1c(O)c3c(c(O)c1C2=O)C[C@@](O)(C(=O)CO)C[C@@H]3O[C@H]1C[C@H](N)[C@@H](O)[C@H](C)O1` [Epirubicin hydrochloride] it was 35.4%.
For the compound `Cn1cc(/C=C/C(=O)c2cccc(F)c2)cc1/C=C/C(=O)NO`, the “reduction in cell viability” value is under 0%.
On the same count and under the same terms, the figure for `CC(C)(OCc1nn(Cc2ccccc2)c2ccccc12)C(=O)O` [Bindarit] is under 0%; for `CC[C@H](CO)Nc1nc(NCc2ccccc2)c2ncn(C(C)C)c2n1` [Seliciclib] it is under 0%; for `CC(=O)N1CCN(c2ccc(OCc3nn(C)c(C)c3-c3cccc4c(CCCOc5cccc6ccccc56)c(C(=O)O)n(Cc5cccnc5)c34)cc2)CC1` it is under 0%.
For `NCCCC(N)(C(=O)O)C(F)F` (stereo unspecified) [Eflornithine Hydrochloride], the “reduction in cell viability” value is under 0%.
Turning to `O=C(Nc1ncc(SCCN2CCCC2)s1)[C@]1(c2ccc(S(=O)(=O)C3CC3)cc2)C[C@H]1C1CCCCC1`, the “reduction in cell viability” value is under 0%.
For the compound `Cc1cc(Nc2cc(NC(=O)c3c(Cl)cccc3Cl)ccn2)nc(N)n1`, the “reduction in cell viability” value was 10.5%.
Still for that read-out and setting: the figure for `C#Cc1cccc(Nc2ncnc3cc(OCCOC)c(OCCO)cc23)c1` is under 0%; for `Nc1nc(OCc2ccccc2)c2nc[nH]c2n1` [O6-Benzylguanine] it is under 0%.

The test system of another experiment is M249P (parental melanoma line). Described as above. To be noted: 200 nM; 72 h.
Regarding `CCCCc1ccc(NS(=O)(=O)c2ccc(C)c(C(=O)N3CCN(c4cccc(C)c4C)CC3)c2)cc1`, the “reduction in cell viability” value was under 0%.
Turning to `COc1ccccc1N1CCN(CC(O)COc2cccc3ccccc23)CC1` (stereo unspecified) [Naftopidil], the “reduction in cell viability” value is under 0%.
Same read-out and setting: in the case of `CN[C@H]1CN(c2ccc3c(=O)c(C(=O)O)cn(-c4nccs4)c3n2)C[C@@H]1OC` [Vosaroxin] it was under 0%.
For `NC(=O)OCC(COC(N)=O)c1ccccc1` [Felbamate], the “reduction in cell viability” value was under 0%.
Take `CC/C(=C(\c1ccc(O)cc1)c1ccc(OCCNC)cc1)c1ccccc1` [Endoxifen]: the “reduction in cell viability” value was under 0%.
Same read-out and setting: in the case of `CC[C@H]1OC(=O)[C@H](C)[C@@H](O[C@H]2C[C@@](C)(OC)[C@@H](O)[C@H](C)O2)[C@H](C)[C@@H](O[C@@H]2O[C@H](C)C[C@H](N(C)C)[C@H]2O)[C@](C)(O)C[C@@H](C)CN(C)[C@H](C)[C@@H](O)[C@]1(C)O` [Azithromycin] it was under 0%; in that of `Nc1ccn([C@@H]2CO[C@H](CO)O2)c(=O)n1` [Troxacitabine], under 0%.
The same measure, in the same setting: in the case of `COc1cc(N2CCC(N3CCN(C)CC3)CC2)ccc1Nc1ncc(Cl)c(Nc2ccccc2S(=O)(=O)C(C)C)n1` it was under 0%.
Consider `COC(=O)N1CCN(Cc2cccc(NC(=O)Nc3ccc(C)nc3)c2F)CC1` [Omecamtiv mecarbil], for which the “reduction in cell viability” value is under 0%.
Still for that read-out and setting: the figure for `COc1ccc(C(=O)CC(=O)c2ccc(C(C)(C)C)cc2)cc1` [Avobenzone] is under 0%.
As for `C=CC(=O)N1CCc2ccc(-n3c(=O)ccc4cnc5ccc(-c6cnn(C)c6)cc5c43)cc21`, the “reduction in cell viability” value is under 0%.
Same read-out and setting: the figure for `O=c1ccc2ccc(O)c(O)c2o1` [Daphnetin] is under 0%; for `CO[C@H]1/C=C\C=C(/C)C(=O)NC2=CC(=O)C(NCCN(C)C)=C(C[C@@H](C)C[C@H](OC)[C@H](O)[C@@H](C)/C=C(\C)[C@@H]1OC(N)=O)C2=O` [Alvespimycin hydrochloride] it is 29.4%; for `O=C(O)c1cc(O)c2c(c1)C(=O)c1cccc(O)c1C2=O` [Rhein] it is under 0%.
For `Cc1[nH]nc2ccc(-c3cncc(OC[C@@H](N)Cc4ccccc4)c3)cc12`, the “reduction in cell viability” value was found to be 0.97%.
The same measure, in the same setting: in the case of `CN1CCCN(C(=O)c2cccc(-c3ccc(/C=C4/C(=O)Nc5ccc(Cl)cc54)o3)c2)CC1` it was 18.3%; in that of `CCCCS(=N)(=O)CCC(N)C(=O)O` (stereo unspecified) [Buthionine sulfoximine], under 0%; in that of `Cc1[nH]c(/C=C2\C(=O)Nc3ccccc32)c(C)c1CCC(=O)O` [Orantinib], under 0%.
The same measure, in the same setting: in the case of `C1CCC(C(CC2CCCCN2)C2CCCCC2)CC1` (stereo unspecified) [Perhexiline] it was under 0%.
Consider `Cc1ccc(S(=O)(=O)N[C@@H](Cc2ccccc2)C(=O)CCl)cc1`, for which the “reduction in cell viability” value is under 0%.
Take `NC(=O)Cc1cccc(C(=O)c2ccccc2)c1N` [Nepafenac]: the “reduction in cell viability” value was determined as 2.12%.
Same read-out and setting: in the case of `Nc1ncnc2c1c(-c1cccc(OCc3ccccc3)c1)cn2C1CC(CN2CCCC2)C1` (stereo unspecified) it was under 0%.
Consider `N#CN=C(NCCCCCCOc1ccc(Cl)cc1)Nc1ccncc1`, for which the “reduction in cell viability” value is 80.8%.
Same read-out and setting: the figure for `O=c1[nH]c(=O)n(C2CCCO2)cc1F` (stereo unspecified) [Tegafur] is under 0%; for `COc1cc2ncnc(Nc3cccc(Br)c3)c2cc1OC` it is under 0%; for `O=C(O)Cc1ccccc1Nc1c(Cl)cccc1Cl` [Diclofenac sodium] it is under 0%.
The same measure, in the same setting: the figure for `CS(=O)(=O)c1cc(F)cc2c3c(n(Cc4ccc(Cl)cc4)c12)[C@@H](CC(=O)O)CC3` [Laropiprant] is under 0%; for `Cc1cnc(Nc2ccc(F)cc2Cl)nc1-c1c[nH]c(C(=O)N[C@H](CO)c2cccc(Cl)c2)c1` it is 15.6%; for `O=C(O)c1ccc(-n2nc(-c3ccccc3O)nc2-c2ccccc2O)cc1` [Deferasirox] it is under 0%.
Consider `COCC(=O)NC/C=C/c1ccc2ncnc(Nc3ccc(Oc4ccc(C)nc4)c(C)c3)c2c1`, for which the “reduction in cell viability” value is under 0%.
For the compound `COc1cccc2c1C(=O)c1c(O)c3c(c(O)c1C2=O)C[C@@](O)(C(=O)CO)C[C@@H]3O[C@H]1C[C@H](N)[C@@H](O)[C@H](C)O1` [Epirubicin hydrochloride], the “reduction in cell viability” value was 46%.
For `Cn1cc(/C=C/C(=O)c2cccc(F)c2)cc1/C=C/C(=O)NO`, the “reduction in cell viability” value is under 0%.
As for `CC(C)(OCc1nn(Cc2ccccc2)c2ccccc12)C(=O)O` [Bindarit], the “reduction in cell viability” value is under 0%.
Turning to `CC[C@H](CO)Nc1nc(NCc2ccccc2)c2ncn(C(C)C)c2n1` [Seliciclib], the “reduction in cell viability” value was under 0%.
On to `CC(=O)N1CCN(c2ccc(OCc3nn(C)c(C)c3-c3cccc4c(CCCOc5cccc6ccccc56)c(C(=O)O)n(Cc5cccnc5)c34)cc2)CC1`, for which the “reduction in cell viability” value is under 0%.
Same read-out and setting: in the case of `NCCCC(N)(C(=O)O)C(F)F` (stereo unspecified) [Eflornithine Hydrochloride] it was under 0%; in that of `O=C(Nc1ncc(SCCN2CCCC2)s1)[C@]1(c2ccc(S(=O)(=O)C3CC3)cc2)C[C@H]1C1CCCCC1`, under 0%.
Still for that read-out and setting: in the case of `Cc1cc(Nc2cc(NC(=O)c3c(Cl)cccc3Cl)ccn2)nc(N)n1` it was under 0%.
On to `C#Cc1cccc(Nc2ncnc3cc(OCCOC)c(OCCO)cc23)c1`, for which the “reduction in cell viability” value was under 0%.
Take `Nc1nc(OCc2ccccc2)c2nc[nH]c2n1` [O6-Benzylguanine]: the “reduction in cell viability” value is under 0%.

These data come from the supplement of paper PMC9015667.
